Test results published in the supplement of paper PMC10849652.
The list shows a part of the results.

Protein sequences, listed by entry. Tags and fused reporters are not part of them. Lines headed by an entry give the natural chain unless they say otherwise; changes in a name come on top.
UniProt P98179: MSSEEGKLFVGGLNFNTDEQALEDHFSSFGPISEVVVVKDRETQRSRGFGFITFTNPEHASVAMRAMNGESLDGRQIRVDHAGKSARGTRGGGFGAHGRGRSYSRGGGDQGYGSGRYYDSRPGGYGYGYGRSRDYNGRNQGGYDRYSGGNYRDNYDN
UniProt Q96D15: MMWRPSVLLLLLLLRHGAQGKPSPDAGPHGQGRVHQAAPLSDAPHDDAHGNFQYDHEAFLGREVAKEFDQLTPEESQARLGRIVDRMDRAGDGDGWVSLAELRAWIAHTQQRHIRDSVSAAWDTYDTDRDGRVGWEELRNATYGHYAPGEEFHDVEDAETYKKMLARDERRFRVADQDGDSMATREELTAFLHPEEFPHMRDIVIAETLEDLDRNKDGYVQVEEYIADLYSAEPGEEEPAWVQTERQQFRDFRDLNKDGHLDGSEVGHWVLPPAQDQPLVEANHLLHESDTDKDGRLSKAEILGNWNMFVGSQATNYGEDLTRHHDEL
UniProt Q15283: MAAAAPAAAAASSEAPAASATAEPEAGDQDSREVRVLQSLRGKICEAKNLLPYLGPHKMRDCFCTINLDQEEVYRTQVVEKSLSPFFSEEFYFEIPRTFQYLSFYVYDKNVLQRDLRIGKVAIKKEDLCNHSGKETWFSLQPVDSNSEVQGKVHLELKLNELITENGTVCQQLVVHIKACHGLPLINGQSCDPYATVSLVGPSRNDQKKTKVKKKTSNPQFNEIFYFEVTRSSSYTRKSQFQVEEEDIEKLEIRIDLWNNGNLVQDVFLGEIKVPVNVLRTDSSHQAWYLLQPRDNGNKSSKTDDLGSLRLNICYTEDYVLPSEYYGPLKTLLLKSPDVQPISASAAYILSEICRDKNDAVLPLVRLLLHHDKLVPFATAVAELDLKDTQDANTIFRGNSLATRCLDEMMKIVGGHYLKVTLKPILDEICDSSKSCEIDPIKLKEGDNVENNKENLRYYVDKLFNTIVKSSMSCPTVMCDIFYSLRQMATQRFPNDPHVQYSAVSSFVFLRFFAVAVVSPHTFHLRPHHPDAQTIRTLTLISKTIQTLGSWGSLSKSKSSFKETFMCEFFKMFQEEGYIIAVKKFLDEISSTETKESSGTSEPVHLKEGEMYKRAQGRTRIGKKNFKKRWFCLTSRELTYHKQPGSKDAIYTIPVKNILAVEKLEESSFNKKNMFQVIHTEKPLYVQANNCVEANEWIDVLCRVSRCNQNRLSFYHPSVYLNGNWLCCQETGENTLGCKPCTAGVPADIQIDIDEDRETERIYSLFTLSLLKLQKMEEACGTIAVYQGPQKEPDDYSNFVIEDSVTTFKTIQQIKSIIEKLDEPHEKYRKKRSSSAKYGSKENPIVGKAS
UniProt Q8TAC1: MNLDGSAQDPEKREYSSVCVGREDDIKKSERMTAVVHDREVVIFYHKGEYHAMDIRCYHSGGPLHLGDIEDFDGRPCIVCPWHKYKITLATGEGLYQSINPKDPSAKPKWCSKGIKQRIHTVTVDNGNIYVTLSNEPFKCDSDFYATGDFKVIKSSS
UniProt Q9BTD8: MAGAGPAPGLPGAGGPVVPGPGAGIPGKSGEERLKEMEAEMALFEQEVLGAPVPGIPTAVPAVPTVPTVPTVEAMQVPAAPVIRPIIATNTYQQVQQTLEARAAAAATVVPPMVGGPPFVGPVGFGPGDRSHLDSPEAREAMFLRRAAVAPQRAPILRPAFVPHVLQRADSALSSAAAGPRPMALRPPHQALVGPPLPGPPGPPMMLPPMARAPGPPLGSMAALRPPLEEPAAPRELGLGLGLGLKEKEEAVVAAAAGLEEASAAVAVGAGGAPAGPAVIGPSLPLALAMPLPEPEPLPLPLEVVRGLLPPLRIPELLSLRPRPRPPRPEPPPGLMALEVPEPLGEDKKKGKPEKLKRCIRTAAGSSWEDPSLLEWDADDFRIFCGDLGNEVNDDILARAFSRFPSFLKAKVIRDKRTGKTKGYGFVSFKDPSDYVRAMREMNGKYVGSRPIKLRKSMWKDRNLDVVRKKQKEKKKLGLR
UniProt P20936: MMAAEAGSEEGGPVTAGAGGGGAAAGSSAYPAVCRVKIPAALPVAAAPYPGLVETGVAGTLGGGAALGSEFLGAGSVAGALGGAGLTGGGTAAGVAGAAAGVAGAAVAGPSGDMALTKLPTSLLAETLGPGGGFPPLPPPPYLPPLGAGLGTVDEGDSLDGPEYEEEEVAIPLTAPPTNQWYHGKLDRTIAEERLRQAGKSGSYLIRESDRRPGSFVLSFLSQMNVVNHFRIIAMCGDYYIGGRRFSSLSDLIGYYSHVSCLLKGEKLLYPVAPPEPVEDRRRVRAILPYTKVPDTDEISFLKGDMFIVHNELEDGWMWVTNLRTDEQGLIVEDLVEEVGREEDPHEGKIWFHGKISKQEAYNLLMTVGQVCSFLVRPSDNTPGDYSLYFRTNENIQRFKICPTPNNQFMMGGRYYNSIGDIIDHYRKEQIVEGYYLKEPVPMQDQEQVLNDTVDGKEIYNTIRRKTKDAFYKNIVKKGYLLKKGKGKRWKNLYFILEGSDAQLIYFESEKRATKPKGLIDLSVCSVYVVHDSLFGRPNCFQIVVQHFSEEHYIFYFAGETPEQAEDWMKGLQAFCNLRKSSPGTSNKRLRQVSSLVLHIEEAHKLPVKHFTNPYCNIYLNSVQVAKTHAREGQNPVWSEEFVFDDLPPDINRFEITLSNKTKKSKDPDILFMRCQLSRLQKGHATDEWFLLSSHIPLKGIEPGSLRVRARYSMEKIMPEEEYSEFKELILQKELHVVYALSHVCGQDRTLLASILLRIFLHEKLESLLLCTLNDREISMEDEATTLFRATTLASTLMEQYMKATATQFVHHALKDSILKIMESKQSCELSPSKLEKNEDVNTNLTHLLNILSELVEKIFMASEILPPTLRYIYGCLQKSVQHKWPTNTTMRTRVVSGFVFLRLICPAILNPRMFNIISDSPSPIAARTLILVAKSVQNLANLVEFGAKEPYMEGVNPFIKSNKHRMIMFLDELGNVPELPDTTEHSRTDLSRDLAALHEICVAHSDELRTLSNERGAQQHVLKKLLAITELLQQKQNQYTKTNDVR
UniProt P38159: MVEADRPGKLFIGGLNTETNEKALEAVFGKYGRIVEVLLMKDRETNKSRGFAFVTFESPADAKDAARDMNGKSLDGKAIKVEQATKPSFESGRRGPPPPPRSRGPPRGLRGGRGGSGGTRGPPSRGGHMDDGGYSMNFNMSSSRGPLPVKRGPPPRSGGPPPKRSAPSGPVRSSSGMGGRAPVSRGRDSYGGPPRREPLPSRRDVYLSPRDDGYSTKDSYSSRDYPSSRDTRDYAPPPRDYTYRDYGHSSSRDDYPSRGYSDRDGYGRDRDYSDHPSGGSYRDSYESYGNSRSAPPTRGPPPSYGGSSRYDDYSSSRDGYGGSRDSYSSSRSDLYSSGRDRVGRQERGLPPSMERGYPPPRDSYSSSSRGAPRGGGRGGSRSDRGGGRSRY
UniProt Q96HR9: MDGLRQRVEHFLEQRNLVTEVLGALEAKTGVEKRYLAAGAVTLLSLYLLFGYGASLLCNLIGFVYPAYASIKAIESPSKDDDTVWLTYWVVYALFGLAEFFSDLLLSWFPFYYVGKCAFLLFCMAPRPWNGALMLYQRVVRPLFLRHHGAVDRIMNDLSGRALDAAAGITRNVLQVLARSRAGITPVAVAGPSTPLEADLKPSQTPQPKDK
UniProt Q9P2R6: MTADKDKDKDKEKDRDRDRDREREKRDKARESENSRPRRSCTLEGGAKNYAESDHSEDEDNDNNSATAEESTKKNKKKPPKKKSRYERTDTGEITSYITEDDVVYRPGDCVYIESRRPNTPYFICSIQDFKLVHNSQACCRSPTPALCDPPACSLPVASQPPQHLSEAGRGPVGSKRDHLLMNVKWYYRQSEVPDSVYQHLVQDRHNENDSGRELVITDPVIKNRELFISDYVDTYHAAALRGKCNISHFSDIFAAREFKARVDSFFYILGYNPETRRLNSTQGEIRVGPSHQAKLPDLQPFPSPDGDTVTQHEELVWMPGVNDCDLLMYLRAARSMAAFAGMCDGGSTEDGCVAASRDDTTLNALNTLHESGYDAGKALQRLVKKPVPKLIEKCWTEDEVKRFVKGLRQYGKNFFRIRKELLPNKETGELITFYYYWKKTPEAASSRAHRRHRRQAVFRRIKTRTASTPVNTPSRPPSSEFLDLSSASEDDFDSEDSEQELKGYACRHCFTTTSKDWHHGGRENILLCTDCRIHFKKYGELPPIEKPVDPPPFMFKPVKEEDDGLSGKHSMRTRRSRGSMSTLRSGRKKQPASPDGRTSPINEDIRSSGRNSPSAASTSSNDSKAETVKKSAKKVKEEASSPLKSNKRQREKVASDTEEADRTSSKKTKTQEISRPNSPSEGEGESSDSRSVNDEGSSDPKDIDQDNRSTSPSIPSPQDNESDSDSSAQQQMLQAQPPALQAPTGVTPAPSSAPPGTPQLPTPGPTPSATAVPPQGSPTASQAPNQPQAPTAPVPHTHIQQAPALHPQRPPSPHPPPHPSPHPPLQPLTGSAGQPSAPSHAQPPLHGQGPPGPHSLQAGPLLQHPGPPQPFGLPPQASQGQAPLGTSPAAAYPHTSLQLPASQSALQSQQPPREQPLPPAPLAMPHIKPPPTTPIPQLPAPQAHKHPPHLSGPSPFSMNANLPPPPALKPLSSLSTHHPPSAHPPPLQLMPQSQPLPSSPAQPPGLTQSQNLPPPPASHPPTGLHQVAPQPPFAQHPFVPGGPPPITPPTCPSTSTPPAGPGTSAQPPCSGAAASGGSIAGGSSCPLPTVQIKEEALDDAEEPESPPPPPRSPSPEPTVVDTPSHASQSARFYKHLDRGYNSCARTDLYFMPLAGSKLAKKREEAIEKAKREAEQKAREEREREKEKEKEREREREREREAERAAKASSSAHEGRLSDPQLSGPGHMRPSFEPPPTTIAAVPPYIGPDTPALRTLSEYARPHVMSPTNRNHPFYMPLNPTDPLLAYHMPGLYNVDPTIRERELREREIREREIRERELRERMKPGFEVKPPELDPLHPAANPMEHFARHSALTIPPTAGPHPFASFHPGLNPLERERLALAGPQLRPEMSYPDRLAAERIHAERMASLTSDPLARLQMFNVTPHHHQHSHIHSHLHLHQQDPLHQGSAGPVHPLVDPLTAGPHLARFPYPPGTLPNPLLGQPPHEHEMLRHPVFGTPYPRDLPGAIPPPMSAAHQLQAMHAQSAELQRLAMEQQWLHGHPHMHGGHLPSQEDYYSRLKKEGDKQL
UniProt Q5T160: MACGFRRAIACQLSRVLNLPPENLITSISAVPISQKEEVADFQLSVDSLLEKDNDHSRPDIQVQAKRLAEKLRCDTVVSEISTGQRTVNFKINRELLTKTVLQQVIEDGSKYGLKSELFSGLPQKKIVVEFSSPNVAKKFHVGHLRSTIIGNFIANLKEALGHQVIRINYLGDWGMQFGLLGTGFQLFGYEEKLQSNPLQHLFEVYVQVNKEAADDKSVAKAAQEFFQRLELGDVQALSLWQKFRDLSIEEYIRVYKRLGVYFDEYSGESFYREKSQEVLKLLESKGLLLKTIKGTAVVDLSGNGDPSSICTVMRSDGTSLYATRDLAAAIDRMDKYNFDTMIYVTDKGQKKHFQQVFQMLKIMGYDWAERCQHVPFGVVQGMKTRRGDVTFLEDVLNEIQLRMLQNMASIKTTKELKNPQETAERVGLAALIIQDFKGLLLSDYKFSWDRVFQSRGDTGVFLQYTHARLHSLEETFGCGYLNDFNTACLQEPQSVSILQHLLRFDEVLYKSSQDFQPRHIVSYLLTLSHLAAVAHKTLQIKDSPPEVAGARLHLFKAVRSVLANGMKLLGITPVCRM
UniProt O43665: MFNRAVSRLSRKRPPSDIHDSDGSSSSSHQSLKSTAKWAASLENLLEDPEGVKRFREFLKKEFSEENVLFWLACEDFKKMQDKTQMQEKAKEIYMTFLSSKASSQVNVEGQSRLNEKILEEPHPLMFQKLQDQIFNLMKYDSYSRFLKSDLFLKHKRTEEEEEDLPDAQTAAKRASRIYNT
UniProt P48382: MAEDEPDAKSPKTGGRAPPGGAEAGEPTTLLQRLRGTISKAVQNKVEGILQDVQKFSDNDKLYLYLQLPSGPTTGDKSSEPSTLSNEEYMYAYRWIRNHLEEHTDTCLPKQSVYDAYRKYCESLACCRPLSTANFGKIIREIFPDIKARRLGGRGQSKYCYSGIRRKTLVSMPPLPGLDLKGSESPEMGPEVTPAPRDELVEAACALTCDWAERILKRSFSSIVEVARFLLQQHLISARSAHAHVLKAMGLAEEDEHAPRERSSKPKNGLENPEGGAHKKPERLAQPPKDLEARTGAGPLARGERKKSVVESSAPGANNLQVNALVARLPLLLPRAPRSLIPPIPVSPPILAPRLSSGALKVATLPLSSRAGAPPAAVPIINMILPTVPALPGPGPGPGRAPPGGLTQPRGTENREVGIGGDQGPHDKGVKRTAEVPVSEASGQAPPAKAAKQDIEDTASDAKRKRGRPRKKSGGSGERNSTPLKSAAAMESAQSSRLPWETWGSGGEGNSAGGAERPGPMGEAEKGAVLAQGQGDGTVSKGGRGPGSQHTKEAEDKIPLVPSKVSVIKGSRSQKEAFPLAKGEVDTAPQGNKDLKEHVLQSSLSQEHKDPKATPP

compound: COc1cc2ncnc(Nc3ccc(F)c(Cl)c3)c2cc1OCCCN1CCOCC1 [gefitinib]; assay: log2 fold change, soluble protein after heating vs DMSO (PISA); higher = thermal stabilisation; K562 lysate, 10 uM; active = over 0.2 and 3.5 SD of the protein, either way, in both replicates (recomputed)
Procedure, shortened: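 Dounce homogenisation of K562 pellets in PBS pH 7.4 with 1 mM MgCl2 produced a crude extract, used at 1 mg/mL protein. Exposure to 10 μM compound lasted 30 min, and aliquots were then heated for 3 min across 48°C-58°C, pooled and brought to 0.5% NP-40 at 4°C. The supernatant after 21,000xg for 90 min was quantified by TMTpro 16plex LC-MS/MS with channel sums equalised. Duplicate values are given as log-two fold change in thermal stability relative to solvent controls.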

log2 fold change, inactive:
RBM3 (UniProt P98179) 0.023
RCN3 (UniProt Q96D15) 0.052
RASA2 (UniProt Q15283) -0.003
RFESD isoform 2 (UniProt Q8TAC1) -0.028
RBM42 (UniProt Q9BTD8) -0.066
RASA1 (UniProt P20936) 0.012
RBMX (UniProt P38159) 0.023
RCOR3 isoform 3 (UniProt Q9P2K3) 0.026
REEP6 (UniProt Q96HR9) -0.175
RCC1L (UniProt Q96I51) 0.035
RDH10 (UniProt Q8IZV5) -0.004
RERE (UniProt Q9P2R6) -0.015
RCAN1 (UniProt P53805) -0.038
RARS2 (UniProt Q5T160) 0.043
RGS10 (UniProt O43665) -0.044
RFX5 (UniProt P48382) 0.1

As a short view, some entries already given.
log2 fold change, inactive:
RARS2 (UniProt Q5T160) 0.043
RGS10 (UniProt O43665) -0.044
